PubChem BioAssay AID504784 – Drosophila RNAi Screening Center – 2011

Purpose: 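Genome-wide knock-down for genes giving too much or too little stored lipid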 (primary screen)
System: Drosophila Kc167 embryonic cells
Knock-down reagent: long dsRNA against Drosophila genes, about 250 ng dsRNA per well
Time to read-out: 4 days
Challenge: cells fed 400 µM oleic acid bound to BSA
Detection: 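Cells imaged and segmented; ratio of lipid droplet area to nuclear area, log-transformed, then normalised as a B-score over the screen; higher means more stored lipid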
Scale: droplet/nuclear area B-score: higher = more stored lipid (overstorage)
In all, the deposit lists about 17,000 reagents; this is a random part of those that have a named target and a result. 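Each column is one replicate's B-score; the combined score over replicates was not deposited, so single values may mislead.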 The numbers tell different reagents against one gene apart. Further read-outs or replicates are left out here.

RpS11 (GeneID 36321) #1
- droplet/nuclear area B-score, replicate 1: 6.35

RpS11 (GeneID 36321) #2
- droplet/nuclear area B-score, replicate 1: 2.5

CG12229 (GeneID 39945)
- droplet/nuclear area B-score, replicate 1: -0.575

CG6933 (GeneID 40214)
- droplet/nuclear area B-score, replicate 1: -2.57

CG17959 (GeneID 31288)
- droplet/nuclear area B-score, replicate 1: 0.874

CG7276 (GeneID 39668)
- droplet/nuclear area B-score, replicate 1: 0.00373

Next part, starting with the last 2 of the part before.
CG17959 (GeneID 31288)
- droplet/nuclear area B-score, replicate 1: 0.874

CG7276 (GeneID 39668)
- droplet/nuclear area B-score, replicate 1: 0.00373

CG12589 (GeneID 50157)
- droplet/nuclear area B-score, replicate 1: 2.52

CG17580 (GeneID 50228)
- droplet/nuclear area B-score, replicate 1: 0.148

SoxN (GeneID 44275) #1
- droplet/nuclear area B-score, replicate 1: -2

SoxN (GeneID 44275) #2
- droplet/nuclear area B-score, replicate 1: 0.78

ATPsynGL (GeneID 34054)
- droplet/nuclear area B-score, replicate 1: -0.023

CG11977 (GeneID 41076)
- droplet/nuclear area B-score, replicate 1: -1.59

Nf-YC (GeneID 31622) #1
- droplet/nuclear area B-score, replicate 1: -0.656

Nf-YC (GeneID 31622) #2
- droplet/nuclear area B-score, replicate 1: -0.831

Rpp21 (GeneID 318857)
- droplet/nuclear area B-score, replicate 1: 0.272

kri (GeneID 38655)
- droplet/nuclear area B-score, replicate 1: 0.586
